# From the supplement of paper PMC8728848
# This is one part of the list.
# How the values were obtained:
# Test in all cases: glycan array binding signal (z-score within array); higher = stronger binding
# Conditions in all cases: glycan notation: IUPAC condensed, linker removed
# [1] = molecular target: GlcNAc(b1-3)Gal(b1-4)GlcNAc(b1-3)Gal(b1-4)GlcNAc(b1-3)Gal(b1-4)GlcNAc(b1-3)Gal(b1-4)GlcNAc(b1-2)[GlcNAc(b1-3)Gal(b1-4)GlcNAc(b1-3)Gal(b1-4)GlcNAc(b1-3)Gal(b1-4)GlcNAc(b1-3)Gal(b1-4)GlcNAc(b1-6)]Man(a1-6)[GlcNAc(b1-3)Gal(b1-4)GlcNAc(b1-3)Gal(b1-4)GlcNAc(b1-3)Gal(b1-4)GlcNAc(b1-3)Gal(b1-4)GlcNAc(b1-2)Man(a1-3)]Man(b1-4)GlcNAc(b1-4)[Fuc(a1-6)]GlcNAc
# Outline: (§1)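 The binding signal is a Z-score computed within each array and averaged over linkers. Arrays of the same protein sequence at different concentrations or buffers were also averaged together. Data originate from 3228 arrays in the Consortium for Functional Glycomics database, kept only where the protein sequence was available.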
# [2] = molecular target: GlcNAc(b1-3)Gal(b1-4)GlcNAc(b1-3)Gal(b1-4)GlcNAc(b1-3)GalNAc
# Outline: as §1
# [3] = molecular target: GlcNAc(b1-3)Gal(b1-4)GlcNAc(b1-3)GalNAc
# Outline: as §1
# [4] = molecular target: GlcNAc(b1-3)Gal(b1-4)GlcNAc(b1-3)[GlcNAc(b1-3)Gal(b1-4)GlcNAc(b1-3)]GalNAc
# Outline: as §1
# [5] = molecular target: GlcNAc(b1-3)Gal(b1-4)GlcNAc(b1-6)[Gal(b1-3)]GalNAc
# Outline: as §1
# [6] = molecular target: GlcNAc(b1-3)Gal(b1-4)GlcNAc(b1-6)[GlcNAc(b1-3)Gal(b1-3)]GalNAc
# Outline: as §1
# [7] = molecular target: GlcNAc(b1-3)Gal(b1-4)GlcNAc(b1-6)[GlcNAc(b1-3)]Gal(b1-4)GlcNAc
# Outline: as §1
# GlcNAc(b1-3)GalNAc = molecular target: GlcNAc(b1-3)GalNAc
# Outline: as §1
# GlcNAc(b1-3)Man = molecular target: GlcNAc(b1-3)Man
# Outline: as §1
# [8] = molecular target: GlcNAc(b1-3)[GlcNAc(b1-4)][GlcNAc(b1-6)]GlcNAc
# Outline: as §1
# [9] = molecular target: GlcNAc(b1-3)[GlcNAc(b1-6)]Gal(b1-4)GlcNAc
# Outline: as §1
# [10] = molecular target: GlcNAc(b1-3)[GlcNAc(b1-6)]GalNAc
# Outline: as §1
# [11] = molecular target: GlcNAc(b1-4)Gal(b1-4)GlcNAc
# Outline: as §1
# GlcNAc(b1-4)GlcNAc = molecular target: GlcNAc(b1-4)GlcNAc
# Outline: as §1
# [12] = molecular target: GlcNAc(b1-4)GlcNAc(b1-4)GlcNAc
# Outline: as §1
# [13] = molecular target: GlcNAc(b1-4)GlcNAc(b1-4)GlcNAc(b1-4)GlcNAc(b1-4)GlcNAc
# Outline: as §1
# [14] = molecular target: GlcNAc(b1-4)GlcNAc(b1-4)GlcNAc(b1-4)GlcNAc(b1-4)GlcNAc(b1-4)GlcNAc
# Outline: as §1
# [15] = molecular target: GlcNAc(b1-4)[GlcNAc(b1-6)]GalNAc
# Outline: as §1
# [16] = molecular target: GlcNAc(b1-6)Gal(b1-4)GlcNAc
# Outline: as §1
# GlcNAc(b1-6)GalNAc = molecular target: GlcNAc(b1-6)GalNAc
# Outline: as §1
# [17] = molecular target: GlcNAc6S(b1-3)Gal(b1-4)GlcNAc
# Outline: as §1
# Kdn(a2-3)Gal(b1-3)GalNAc = molecular target: Kdn(a2-3)Gal(b1-3)GalNAc
# Outline: as §1
# Kdn(a2-3)Gal(b1-3)GlcNAc = molecular target: Kdn(a2-3)Gal(b1-3)GlcNAc
# Outline: as §1
# Kdn(a2-3)Gal(b1-4)Glc = molecular target: Kdn(a2-3)Gal(b1-4)Glc
# Outline: as §1
# Kdn(a2-3)Gal(b1-4)GlcNAc = molecular target: Kdn(a2-3)Gal(b1-4)GlcNAc
# Outline: as §1
# [18] = molecular target: Kdn(a2-3)Gal(b1-4)[Fuc(a1-3)]GlcNAc
# Outline: as §1
# Kdn(a2-6)Gal(b1-4)GlcNAc = molecular target: Kdn(a2-6)Gal(b1-4)GlcNAc
# Outline: as §1
# [19] = molecular target: Man(a1-2)Man(a1-2)Man(a1-3)Man
# Outline: as §1
# [20] = molecular target: Man(a1-2)Man(a1-2)Man(a1-6)[Man(a1-3)]Man
# Outline: as §1
# Man(a1-2)Man(a1-3)Man = molecular target: Man(a1-2)Man(a1-3)Man
# Outline: as §1
# [21] = molecular target: Man(a1-2)Man(a1-3)[Man(a1-2)Man(a1-6)]Man
# Outline: as §1
# [22] = molecular target: Man(a1-2)Man(a1-3)[Man(a1-2)Man(a1-6)]Man(a1-6)[Man(a1-2)Man(a1-2)Man(a1-3)]Man
# Outline: as §1
# [23] = molecular target: Man(a1-2)Man(a1-3)[Man(a1-2)Man(a1-6)]Man(a1-6)[Man(a1-2)Man(a1-2)Man(a1-3)]Man(b1-4)GlcNAc(b1-4)GlcNAc
# Outline: as §1
# [24] = molecular target: Man(a1-2)Man(a1-3)[Man(a1-6)]Man(a1-6)[Man(a1-2)Man(a1-3)]Man(b1-4)GlcNAc(b1-4)GlcNAc
# Outline: as §1
# [25] = molecular target: Man(a1-2)Man(a1-6)[Man(a1-3)]Man(a1-6)[Man(a1-2)Man(a1-2)Man(a1-3)]Man
# Outline: as §1
# [26] = molecular target: Man(a1-2)Man(a1-6)[Man(a1-3)]Man(a1-6)[Man(a1-2)Man(a1-2)Man(a1-3)]Man(b1-4)GlcNAc(b1-4)GlcNAc
# Outline: as §1
# Man(a1-3)[Man(a1-6)]Man = molecular target: Man(a1-3)[Man(a1-6)]Man
# Outline: as §1
binder,measurement,setting,value
Epa19 (Candida glabrata) (protein) MGSSHHHHHHSSGLVPRGSHMASSKDPTRFPIGCSPQVLKTQPGLAVKLYSYGHPVPGCSYITYQYPDFPRSGYKKERKLADITGVNGKIDIDLKPNDPCRVLTGHLPSNYNYPDTLTYTNFTMILYGYFQPKVTGYHTFNLEADDLLFMNLGAGNAFDCCKAESTLDNFGNYQSYSLWGSDYAKANITVFLVSGVYYPIRLFYVNRDNNAVIDFSFTTEFDKEKVHDFTSYFFSASDGEQCPGSV,glycan array binding signal (z-score),[1],2.39
same,glycan array binding signal (z-score),[2],0.479
same,glycan array binding signal (z-score),[3],0.994
same,glycan array binding signal (z-score),[4],0.409
same,glycan array binding signal (z-score),[5],-0.085
same,glycan array binding signal (z-score),[6],-0.077
same,glycan array binding signal (z-score),[7],-0.237
same,glycan array binding signal (z-score),GlcNAc(b1-3)GalNAc,-0.915
same,glycan array binding signal (z-score),GlcNAc(b1-3)Man,0.124
same,glycan array binding signal (z-score),[8],-0.599
same,glycan array binding signal (z-score),[9],-0.086
same,glycan array binding signal (z-score),[10],-0.568
same,glycan array binding signal (z-score),[11],-0.432
same,glycan array binding signal (z-score),GlcNAc(b1-4)GlcNAc,-0.042
same,glycan array binding signal (z-score),[12],-0.295
same,glycan array binding signal (z-score),[13],0.233
same,glycan array binding signal (z-score),[14],-0.594
same,glycan array binding signal (z-score),[15],-0.556
same,glycan array binding signal (z-score),[16],0.368
same,glycan array binding signal (z-score),GlcNAc(b1-6)GalNAc,0.011
same,glycan array binding signal (z-score),[17],0.237
same,glycan array binding signal (z-score),Kdn(a2-3)Gal(b1-3)GalNAc,0.843
same,glycan array binding signal (z-score),Kdn(a2-3)Gal(b1-3)GlcNAc,0.692
same,glycan array binding signal (z-score),Kdn(a2-3)Gal(b1-4)Glc,-0.214
same,glycan array binding signal (z-score),Kdn(a2-3)Gal(b1-4)GlcNAc,-0.465
same,glycan array binding signal (z-score),[18],-0.281
same,glycan array binding signal (z-score),Kdn(a2-6)Gal(b1-4)GlcNAc,-0.099
same,glycan array binding signal (z-score),[19],-0.225
same,glycan array binding signal (z-score),[20],-0.611
same,glycan array binding signal (z-score),Man(a1-2)Man(a1-3)Man,-0.901
same,glycan array binding signal (z-score),[21],-0.465
same,glycan array binding signal (z-score),[22],0.349
same,glycan array binding signal (z-score),[23],-0.05
same,glycan array binding signal (z-score),[24],-0.435
same,glycan array binding signal (z-score),[25],-0.56
same,glycan array binding signal (z-score),[26],-0.373
same,glycan array binding signal (z-score),Man(a1-3)[Man(a1-6)]Man,0.05

# As a working copy, part of the list above.
binder,measurement,setting,value
Epa19 (Candida glabrata) (protein) MGSSHHHHHHSSGLVPRGSHMASSKDPTRFPIGCSPQVLKTQPGLAVKLYSYGHPVPGCSYITYQYPDFPRSGYKKERKLADITGVNGKIDIDLKPNDPCRVLTGHLPSNYNYPDTLTYTNFTMILYGYFQPKVTGYHTFNLEADDLLFMNLGAGNAFDCCKAESTLDNFGNYQSYSLWGSDYAKANITVFLVSGVYYPIRLFYVNRDNNAVIDFSFTTEFDKEKVHDFTSYFFSASDGEQCPGSV,glycan array binding signal (z-score),[24],-0.435
same,glycan array binding signal (z-score),[25],-0.56
same,glycan array binding signal (z-score),[26],-0.373
